Results as given in the supplement of paper PMC10849652.
The other results are listed elsewhere or left out.

Chains of the proteins cited; added tags and fusions are not shown. Lines headed by an entry give the natural chain unless they say otherwise; changes in a name come on top.
UniProt Q9UFN0: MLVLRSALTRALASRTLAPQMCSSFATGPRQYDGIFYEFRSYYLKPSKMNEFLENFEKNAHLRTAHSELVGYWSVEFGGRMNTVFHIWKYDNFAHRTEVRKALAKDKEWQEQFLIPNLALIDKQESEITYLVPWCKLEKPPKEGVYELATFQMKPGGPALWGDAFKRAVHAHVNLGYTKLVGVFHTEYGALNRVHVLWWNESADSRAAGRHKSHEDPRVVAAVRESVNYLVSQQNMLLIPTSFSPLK
UniProt Q15843, whole entry, looked up: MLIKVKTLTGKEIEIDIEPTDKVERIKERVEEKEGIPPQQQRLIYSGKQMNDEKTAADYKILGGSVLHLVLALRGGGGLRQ
UniProt P49821, whole entry, looked up: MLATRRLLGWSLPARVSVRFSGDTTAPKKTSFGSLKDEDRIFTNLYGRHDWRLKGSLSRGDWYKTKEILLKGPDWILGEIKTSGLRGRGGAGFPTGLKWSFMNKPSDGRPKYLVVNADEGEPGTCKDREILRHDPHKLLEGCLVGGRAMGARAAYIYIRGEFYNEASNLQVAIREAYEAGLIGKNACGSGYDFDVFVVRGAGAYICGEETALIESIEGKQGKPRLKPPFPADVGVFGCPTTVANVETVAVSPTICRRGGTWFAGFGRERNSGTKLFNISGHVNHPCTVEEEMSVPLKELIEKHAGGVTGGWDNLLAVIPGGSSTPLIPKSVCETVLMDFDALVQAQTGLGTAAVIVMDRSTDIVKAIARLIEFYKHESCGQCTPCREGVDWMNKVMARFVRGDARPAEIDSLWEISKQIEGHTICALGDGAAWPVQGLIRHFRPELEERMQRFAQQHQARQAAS
UniProt Q9BYG3: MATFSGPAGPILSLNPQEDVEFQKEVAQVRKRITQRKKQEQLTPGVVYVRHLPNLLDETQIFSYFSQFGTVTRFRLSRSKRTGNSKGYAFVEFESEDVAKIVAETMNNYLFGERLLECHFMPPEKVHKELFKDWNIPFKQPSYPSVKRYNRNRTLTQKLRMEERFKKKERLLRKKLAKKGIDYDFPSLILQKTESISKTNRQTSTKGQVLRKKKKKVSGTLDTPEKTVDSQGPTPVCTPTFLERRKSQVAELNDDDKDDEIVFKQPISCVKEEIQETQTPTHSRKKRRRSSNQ
UniProt Q8NHV4, whole entry, looked up: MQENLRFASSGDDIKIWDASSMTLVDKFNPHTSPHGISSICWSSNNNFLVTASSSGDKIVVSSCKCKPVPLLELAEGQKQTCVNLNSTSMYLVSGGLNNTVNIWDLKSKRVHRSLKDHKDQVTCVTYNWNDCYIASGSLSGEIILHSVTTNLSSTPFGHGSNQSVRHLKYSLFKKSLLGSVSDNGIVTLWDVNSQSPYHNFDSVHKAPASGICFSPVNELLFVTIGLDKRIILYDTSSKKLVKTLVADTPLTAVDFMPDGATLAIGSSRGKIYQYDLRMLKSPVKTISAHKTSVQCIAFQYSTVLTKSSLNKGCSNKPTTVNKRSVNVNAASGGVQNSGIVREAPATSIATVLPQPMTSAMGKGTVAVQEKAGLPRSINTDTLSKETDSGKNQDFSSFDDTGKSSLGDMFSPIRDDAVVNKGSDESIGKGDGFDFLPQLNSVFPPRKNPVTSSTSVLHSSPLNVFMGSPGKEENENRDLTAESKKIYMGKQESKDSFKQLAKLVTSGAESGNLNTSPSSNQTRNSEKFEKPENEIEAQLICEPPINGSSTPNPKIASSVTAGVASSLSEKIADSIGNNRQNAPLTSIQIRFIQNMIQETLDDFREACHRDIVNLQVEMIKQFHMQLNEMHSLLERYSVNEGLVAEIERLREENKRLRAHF
UniProt Q86X76: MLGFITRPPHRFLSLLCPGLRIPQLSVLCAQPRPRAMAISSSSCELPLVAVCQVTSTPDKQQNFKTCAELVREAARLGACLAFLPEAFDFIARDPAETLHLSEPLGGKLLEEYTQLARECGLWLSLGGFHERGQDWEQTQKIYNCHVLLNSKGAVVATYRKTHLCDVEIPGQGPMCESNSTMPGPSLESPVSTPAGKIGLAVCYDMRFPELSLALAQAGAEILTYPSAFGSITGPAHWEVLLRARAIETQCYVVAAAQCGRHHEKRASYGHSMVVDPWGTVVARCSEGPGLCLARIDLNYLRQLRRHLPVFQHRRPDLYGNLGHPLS
UniProt P46934: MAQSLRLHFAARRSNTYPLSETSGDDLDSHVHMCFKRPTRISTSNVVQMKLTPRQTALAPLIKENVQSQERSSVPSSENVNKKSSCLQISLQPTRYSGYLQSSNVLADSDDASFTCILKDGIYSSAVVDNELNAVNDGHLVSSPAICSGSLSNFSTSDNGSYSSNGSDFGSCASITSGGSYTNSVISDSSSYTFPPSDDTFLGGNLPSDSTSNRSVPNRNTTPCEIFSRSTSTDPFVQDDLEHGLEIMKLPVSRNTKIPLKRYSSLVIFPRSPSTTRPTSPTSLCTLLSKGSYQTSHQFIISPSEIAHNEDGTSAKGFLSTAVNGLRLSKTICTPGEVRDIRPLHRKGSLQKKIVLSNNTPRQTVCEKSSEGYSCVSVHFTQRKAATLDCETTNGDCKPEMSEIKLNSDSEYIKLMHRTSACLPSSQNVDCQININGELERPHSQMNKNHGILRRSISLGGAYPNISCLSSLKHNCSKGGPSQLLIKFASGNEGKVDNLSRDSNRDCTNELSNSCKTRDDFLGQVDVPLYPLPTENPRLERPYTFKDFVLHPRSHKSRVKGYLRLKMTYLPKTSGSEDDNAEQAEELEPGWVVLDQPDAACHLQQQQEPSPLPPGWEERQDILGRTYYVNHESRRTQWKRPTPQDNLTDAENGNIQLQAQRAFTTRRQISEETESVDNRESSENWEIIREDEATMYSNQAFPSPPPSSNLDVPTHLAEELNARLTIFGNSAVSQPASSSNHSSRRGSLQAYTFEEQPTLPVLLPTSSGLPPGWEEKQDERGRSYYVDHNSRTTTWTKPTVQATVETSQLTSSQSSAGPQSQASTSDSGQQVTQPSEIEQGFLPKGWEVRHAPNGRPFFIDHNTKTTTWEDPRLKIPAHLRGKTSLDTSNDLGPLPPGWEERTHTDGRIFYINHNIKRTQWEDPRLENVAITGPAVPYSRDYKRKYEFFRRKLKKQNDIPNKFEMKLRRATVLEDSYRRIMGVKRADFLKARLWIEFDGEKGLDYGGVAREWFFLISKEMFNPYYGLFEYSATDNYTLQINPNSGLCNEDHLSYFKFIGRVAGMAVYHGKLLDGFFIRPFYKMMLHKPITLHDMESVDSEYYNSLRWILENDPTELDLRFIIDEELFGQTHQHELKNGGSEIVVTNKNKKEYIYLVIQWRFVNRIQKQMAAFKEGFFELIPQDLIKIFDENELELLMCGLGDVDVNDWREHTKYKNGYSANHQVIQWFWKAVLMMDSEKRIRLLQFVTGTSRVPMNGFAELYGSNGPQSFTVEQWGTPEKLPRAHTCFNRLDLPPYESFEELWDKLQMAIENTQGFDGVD
UniProt Q86Y39, whole entry, looked up: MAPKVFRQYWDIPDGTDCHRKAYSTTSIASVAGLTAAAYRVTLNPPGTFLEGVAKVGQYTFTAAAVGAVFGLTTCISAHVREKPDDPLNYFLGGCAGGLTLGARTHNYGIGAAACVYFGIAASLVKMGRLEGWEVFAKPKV
UniProt Q96IV0: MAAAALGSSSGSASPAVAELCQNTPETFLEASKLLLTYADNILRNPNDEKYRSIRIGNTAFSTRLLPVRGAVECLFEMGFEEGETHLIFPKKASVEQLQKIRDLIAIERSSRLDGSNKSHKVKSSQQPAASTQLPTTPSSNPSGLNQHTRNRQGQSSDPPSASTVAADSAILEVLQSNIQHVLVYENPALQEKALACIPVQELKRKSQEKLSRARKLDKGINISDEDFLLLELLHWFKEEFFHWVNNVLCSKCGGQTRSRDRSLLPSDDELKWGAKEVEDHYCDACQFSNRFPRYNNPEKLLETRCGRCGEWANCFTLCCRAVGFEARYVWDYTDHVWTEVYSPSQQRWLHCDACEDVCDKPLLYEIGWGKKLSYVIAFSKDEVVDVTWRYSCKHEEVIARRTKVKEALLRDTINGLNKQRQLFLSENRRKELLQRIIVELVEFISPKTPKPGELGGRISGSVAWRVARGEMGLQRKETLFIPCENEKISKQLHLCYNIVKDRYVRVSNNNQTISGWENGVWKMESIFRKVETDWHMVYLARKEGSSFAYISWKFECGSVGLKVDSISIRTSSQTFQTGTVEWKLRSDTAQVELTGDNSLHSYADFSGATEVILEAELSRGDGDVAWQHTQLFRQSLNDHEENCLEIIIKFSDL
UniProt Q9Y697: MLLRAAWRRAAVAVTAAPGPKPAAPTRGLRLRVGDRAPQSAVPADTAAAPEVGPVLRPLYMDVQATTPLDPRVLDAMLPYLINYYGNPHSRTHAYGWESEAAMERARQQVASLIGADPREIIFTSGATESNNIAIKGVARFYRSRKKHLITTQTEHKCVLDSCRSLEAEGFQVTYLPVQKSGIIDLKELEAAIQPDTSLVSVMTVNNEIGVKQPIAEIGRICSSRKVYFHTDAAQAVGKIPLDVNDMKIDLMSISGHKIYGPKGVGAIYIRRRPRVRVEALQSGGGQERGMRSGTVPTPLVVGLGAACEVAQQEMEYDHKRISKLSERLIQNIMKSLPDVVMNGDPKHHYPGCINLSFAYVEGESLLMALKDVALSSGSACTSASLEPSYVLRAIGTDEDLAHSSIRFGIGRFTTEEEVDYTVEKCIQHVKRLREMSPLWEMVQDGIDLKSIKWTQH
UniProt O95182, whole entry, looked up: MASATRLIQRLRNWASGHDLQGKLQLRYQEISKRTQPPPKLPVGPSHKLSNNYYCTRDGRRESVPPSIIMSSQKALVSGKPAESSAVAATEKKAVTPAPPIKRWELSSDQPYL
UniProt Q12986: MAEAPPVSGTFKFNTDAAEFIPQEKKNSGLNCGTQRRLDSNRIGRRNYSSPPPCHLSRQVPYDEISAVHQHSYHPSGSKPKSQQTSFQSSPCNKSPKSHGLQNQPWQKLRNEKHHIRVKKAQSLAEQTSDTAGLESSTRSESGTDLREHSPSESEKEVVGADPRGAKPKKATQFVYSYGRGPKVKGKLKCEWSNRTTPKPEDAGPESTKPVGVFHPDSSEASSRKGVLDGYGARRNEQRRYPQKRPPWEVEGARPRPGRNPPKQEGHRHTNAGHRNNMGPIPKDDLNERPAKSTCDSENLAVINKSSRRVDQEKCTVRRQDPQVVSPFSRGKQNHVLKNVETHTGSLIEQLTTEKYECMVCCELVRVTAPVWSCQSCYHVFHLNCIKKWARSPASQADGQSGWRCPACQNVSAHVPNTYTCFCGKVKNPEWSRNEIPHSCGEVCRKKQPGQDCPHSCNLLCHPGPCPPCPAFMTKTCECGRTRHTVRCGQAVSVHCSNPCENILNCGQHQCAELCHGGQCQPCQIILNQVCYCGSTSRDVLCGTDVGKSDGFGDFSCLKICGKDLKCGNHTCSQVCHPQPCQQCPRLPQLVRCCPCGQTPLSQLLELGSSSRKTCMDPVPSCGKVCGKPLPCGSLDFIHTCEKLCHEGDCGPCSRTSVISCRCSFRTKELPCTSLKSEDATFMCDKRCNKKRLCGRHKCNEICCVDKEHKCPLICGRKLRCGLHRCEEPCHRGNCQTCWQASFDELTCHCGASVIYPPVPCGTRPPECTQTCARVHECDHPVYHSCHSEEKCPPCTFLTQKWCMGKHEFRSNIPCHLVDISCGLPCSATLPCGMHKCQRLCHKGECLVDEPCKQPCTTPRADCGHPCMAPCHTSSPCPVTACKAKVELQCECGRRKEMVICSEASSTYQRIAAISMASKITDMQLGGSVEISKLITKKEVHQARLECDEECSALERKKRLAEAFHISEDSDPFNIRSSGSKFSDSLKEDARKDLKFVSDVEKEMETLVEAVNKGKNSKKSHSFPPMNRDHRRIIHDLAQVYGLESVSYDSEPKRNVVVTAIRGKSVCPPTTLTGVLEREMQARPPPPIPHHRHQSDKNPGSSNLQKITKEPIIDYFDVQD
UniProt Q9Y6M9, whole entry, looked up: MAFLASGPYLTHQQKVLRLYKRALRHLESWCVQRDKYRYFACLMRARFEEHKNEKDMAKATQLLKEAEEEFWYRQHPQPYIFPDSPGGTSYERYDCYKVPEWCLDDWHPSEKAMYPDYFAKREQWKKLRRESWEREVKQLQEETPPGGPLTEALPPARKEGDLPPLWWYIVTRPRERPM
UniProt Q8TDX7: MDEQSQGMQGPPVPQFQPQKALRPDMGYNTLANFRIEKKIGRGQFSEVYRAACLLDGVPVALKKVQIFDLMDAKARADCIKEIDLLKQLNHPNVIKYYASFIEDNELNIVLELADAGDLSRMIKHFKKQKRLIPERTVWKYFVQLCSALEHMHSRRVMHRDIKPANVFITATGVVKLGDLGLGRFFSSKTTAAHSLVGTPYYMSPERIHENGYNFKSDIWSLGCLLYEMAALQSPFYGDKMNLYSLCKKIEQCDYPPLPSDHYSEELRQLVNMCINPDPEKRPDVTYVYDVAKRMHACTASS
UniProt Q9NYR9: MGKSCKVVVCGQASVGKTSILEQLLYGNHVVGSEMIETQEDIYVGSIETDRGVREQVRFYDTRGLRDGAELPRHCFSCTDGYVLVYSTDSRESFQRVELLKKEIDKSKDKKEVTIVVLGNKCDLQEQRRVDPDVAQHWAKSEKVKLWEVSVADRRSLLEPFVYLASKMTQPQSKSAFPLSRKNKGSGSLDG

The targets below were run with NC1(c2ccc(-c3nc4ccn5c(=O)[nH]nc5c4cc3-c3ccccc3)cc2)CCC1 (assay: log2 fold change, soluble protein after heating vs DMSO (PISA); higher = thermal stabilisation; K562 lysate, 10 uM; active = over 0.2 and 3.5 SD of the protein, either way, in both replicates (recomputed)).
Procedure, shortened: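 Log-two fold change in thermal stability relative to solvent controls is reported from duplicates. For each sample, crude K562 extract from dounce-homogenised pellets in PBS pH 7.4 with 1 mM MgCl2, at 1 mg/mL protein, was treated with 10 μM compound for 30 min. Aliquots heated for 3 min across 48°C-58°C were pooled, brought to 0.5% NP-40 at 4°C and cleared at 21,000xg for 90 min. The supernatant was quantified by TMTpro 16plex LC-MS/MS with channel sums equalised.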

log2 fold change, inactive:
NIPSNAP3A (UniProt Q9UFN0) -0.025
NEDD8 (UniProt Q15843) 0.018
NDUFAF4 (UniProt Q9P032) -0.011
NDUFV1 (UniProt P49821) -0.014
NEU1 (UniProt Q99519) 0.003
NDRG2 (UniProt Q9UN36) -0.003
NDUFAB1 (UniProt O14561) 0.052
NIFK (UniProt Q9BYG3) -0.038
NFU1 (UniProt Q9UMS0) -0.008
NDC80 (UniProt O14777) 0.002
NEDD1 isoform 3 (UniProt Q8NHV4) 0.013
NIP7 (UniProt Q9Y221) 0.003
NIT1 (UniProt Q86X76) -0.028
NDUFA10 (UniProt O95299) 0.105
NFIC (UniProt P08651) 0.016
NLRP2 (UniProt Q9NX02) 0.026
NEDD4 isoform 4 (UniProt P46934) -0.004
NDRG3 (UniProt Q9UGV2) -0.02
NFKBIE (UniProt O00221) -0.024
NEPRO (UniProt Q6NW34) -0.036
NDUFA11 (UniProt Q86Y39) 0.054
NGLY1 (UniProt Q96IV0) -0.03
NFS1 (UniProt Q9Y697) -0.024
NDUFA7 (UniProt O95182) 0.023
NHP2 (UniProt Q9NX24) 0.016
NFATC3 (UniProt Q12968) 0.011
NFAT5 isoform 5 (UniProt O94916) 0.039
NGRN (UniProt Q9NPE2) -0.042
NDUFA6 (UniProt P56556) 0.03
NF2 (UniProt P35240) 0.044
NELFB isoform 2 (UniProt Q8WX92) -0.006
NDUFS7 (UniProt O75251) -0.017
NFX1 (UniProt Q12986) -0.038
NDUFB9 (UniProt Q9Y6M9) 0.043
NDUFB8 (UniProt O95169) -0.017
NF1 (UniProt P21359) -0.016
NIPSNAP2 (UniProt O75323) -0.068
NEK7 (UniProt Q8TDX7) 0.01
NKIRAS2 (UniProt Q9NYR9) 0.02

For convenience, some entries already given.
log2 fold change, inactive:
NHP2 (UniProt Q9NX24) 0.016
NFATC3 (UniProt Q12968) 0.011
NFAT5 isoform 5 (UniProt O94916) 0.039
NGRN (UniProt Q9NPE2) -0.042
NDUFA6 (UniProt P56556) 0.03
NF2 (UniProt P35240) 0.044
NELFB isoform 2 (UniProt Q8WX92) -0.006
